# Source: the supplement of paper PMC10032668
# The chains behind the UniProt entries cited, without tags or fusion partners.
# EIF3K, Q9UBQ5, UniProt Q9UBQ5, whole entry: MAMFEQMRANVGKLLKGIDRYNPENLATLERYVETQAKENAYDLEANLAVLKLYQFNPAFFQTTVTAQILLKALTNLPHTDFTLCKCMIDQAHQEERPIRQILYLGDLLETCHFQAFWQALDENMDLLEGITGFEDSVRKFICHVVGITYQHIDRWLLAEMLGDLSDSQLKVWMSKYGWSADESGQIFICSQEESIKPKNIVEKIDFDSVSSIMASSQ
# HSP90B1, P14625, UniProt P14625, whole entry: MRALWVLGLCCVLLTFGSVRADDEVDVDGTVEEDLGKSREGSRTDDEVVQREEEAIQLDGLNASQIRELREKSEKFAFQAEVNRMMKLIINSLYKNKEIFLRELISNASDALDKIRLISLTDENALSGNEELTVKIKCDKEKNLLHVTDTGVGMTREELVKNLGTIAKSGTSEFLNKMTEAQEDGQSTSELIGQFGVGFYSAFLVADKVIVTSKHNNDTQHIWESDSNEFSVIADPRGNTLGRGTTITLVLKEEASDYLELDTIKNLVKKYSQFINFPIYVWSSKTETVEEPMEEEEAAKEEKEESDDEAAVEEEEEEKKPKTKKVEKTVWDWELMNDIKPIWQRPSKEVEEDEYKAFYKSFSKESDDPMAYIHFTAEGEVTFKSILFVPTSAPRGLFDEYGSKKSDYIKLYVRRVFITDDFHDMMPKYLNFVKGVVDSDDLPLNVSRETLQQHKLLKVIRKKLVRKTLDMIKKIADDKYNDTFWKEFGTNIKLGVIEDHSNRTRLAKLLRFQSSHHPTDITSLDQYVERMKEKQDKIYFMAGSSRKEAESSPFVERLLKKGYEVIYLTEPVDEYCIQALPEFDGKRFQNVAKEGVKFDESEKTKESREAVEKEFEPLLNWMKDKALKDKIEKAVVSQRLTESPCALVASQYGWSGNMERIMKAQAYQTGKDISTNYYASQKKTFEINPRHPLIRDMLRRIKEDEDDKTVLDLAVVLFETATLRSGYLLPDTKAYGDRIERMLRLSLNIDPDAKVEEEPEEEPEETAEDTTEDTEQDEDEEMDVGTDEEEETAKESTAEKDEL
# PFN2, P35080, UniProt P35080, whole entry: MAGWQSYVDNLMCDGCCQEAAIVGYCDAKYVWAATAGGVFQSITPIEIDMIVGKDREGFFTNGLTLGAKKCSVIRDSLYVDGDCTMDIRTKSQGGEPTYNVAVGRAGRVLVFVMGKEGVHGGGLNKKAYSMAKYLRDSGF
# SNRPD3, P62318, UniProt P62318, whole entry: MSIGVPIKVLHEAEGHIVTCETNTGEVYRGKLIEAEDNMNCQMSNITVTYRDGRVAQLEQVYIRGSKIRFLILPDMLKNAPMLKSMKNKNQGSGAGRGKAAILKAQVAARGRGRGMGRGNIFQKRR
# TUBG1, P23258, UniProt P23258, whole entry: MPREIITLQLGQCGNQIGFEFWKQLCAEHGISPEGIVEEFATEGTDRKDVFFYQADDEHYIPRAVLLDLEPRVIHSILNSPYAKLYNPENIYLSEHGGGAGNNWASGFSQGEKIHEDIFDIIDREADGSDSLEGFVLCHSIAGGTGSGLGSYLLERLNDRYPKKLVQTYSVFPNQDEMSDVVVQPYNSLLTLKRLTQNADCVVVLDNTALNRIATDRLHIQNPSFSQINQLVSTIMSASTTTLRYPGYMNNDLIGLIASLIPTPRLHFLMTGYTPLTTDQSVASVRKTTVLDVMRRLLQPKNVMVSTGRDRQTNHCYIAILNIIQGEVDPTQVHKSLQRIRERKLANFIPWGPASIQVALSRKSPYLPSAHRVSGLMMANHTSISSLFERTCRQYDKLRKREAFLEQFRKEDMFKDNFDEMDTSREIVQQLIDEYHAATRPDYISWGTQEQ
# XPO1, O14980, UniProt O14980, whole entry: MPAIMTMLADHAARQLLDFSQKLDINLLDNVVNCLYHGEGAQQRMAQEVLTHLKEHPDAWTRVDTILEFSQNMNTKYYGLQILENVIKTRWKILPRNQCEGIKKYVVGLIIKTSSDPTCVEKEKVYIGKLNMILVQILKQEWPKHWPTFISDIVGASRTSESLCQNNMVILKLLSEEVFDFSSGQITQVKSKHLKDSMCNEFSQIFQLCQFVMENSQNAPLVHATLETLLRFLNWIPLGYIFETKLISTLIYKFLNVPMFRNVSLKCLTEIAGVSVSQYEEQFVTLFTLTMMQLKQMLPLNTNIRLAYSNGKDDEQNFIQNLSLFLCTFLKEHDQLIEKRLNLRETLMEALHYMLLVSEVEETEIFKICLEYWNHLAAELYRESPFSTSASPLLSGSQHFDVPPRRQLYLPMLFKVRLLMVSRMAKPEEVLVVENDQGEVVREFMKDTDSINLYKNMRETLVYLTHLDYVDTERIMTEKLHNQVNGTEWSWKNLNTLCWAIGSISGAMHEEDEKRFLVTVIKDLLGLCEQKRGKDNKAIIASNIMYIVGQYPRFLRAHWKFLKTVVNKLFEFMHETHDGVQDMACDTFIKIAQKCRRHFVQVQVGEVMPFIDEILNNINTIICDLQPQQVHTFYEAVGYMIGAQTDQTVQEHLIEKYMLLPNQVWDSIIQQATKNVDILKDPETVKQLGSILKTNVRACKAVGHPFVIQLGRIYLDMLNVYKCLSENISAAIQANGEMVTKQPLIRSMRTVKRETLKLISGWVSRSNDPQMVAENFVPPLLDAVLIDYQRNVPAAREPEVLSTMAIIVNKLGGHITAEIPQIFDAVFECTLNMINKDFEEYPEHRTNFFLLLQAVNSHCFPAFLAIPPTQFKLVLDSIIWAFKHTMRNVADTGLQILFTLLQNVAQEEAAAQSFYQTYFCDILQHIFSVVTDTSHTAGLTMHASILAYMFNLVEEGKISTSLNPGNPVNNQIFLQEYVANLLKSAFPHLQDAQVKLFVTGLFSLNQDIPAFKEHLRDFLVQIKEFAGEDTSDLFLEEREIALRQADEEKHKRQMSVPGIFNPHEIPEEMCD
# IDH1, O75874, UniProt O75874, whole entry: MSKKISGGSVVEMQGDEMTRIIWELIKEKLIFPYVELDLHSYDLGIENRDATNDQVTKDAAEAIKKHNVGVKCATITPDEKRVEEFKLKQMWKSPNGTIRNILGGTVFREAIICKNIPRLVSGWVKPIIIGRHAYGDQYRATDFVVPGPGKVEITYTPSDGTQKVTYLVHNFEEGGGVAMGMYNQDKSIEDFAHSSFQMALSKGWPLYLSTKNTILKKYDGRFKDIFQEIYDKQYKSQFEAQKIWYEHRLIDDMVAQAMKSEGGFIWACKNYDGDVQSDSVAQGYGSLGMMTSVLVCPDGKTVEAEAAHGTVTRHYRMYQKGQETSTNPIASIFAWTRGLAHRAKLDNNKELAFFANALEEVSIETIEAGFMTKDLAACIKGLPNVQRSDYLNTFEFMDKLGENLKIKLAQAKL
# POLR1C, O15160, UniProt O15160, whole entry: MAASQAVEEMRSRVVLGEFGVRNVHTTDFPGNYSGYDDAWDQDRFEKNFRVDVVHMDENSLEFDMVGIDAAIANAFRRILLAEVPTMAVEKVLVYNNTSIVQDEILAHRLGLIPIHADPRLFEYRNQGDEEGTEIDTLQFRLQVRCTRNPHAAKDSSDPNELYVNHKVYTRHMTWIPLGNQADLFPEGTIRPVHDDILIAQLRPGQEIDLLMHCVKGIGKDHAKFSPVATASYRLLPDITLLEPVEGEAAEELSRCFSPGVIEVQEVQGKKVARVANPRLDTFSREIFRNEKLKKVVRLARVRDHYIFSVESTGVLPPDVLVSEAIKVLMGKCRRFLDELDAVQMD
# The other results are listed elsewhere or left out. The list holds hits alone, and they repeat only in part.
# B1: RAB12 (peptide)
# chain: TSSCRSSLSAPAAWA
# B2: SOS1_MUT_1 (peptide)
# chain: EVPVPAPVAPARRP
# B3: PRR34-AS1 (peptide)
# chain: DLLKMCTSTCSLKIP
# Legend:
# Assay in all cases: PRISMA enrichment of interactor (LFQ) in peptide spot vs all other peptide spots (log2 fold change); higher = stronger / more specific binding of the interactor to the peptide
# ACP1, P24666 = biological target: ACP1, P24666
# Experimental: (§1)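 PRISMA: 15-aa overlapping tiles (offset 8 aa) of 60 microproteins, plus SOS1/GLUT1 control peptides, were spot-synthesized on cellulose membranes in triplicate. Membranes were incubated with benzonase-treated HEK293T lysate, and bound proteins were identified by LC-MS/MS with LFQ. Enrichment is the log2 fold change of each protein in one spot versus all other spots. Only interactors passing the significance cutoff are listed.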
# CNN3, Q15417 = biological target: CNN3, Q15417
# Experimental: as §1
# COA7, Q96BR5 = biological target: COA7, Q96BR5
# Experimental: as §1
# DBR1, Q9UK59 = biological target: DBR1, Q9UK59
# Experimental: as §1
# EIF3K, Q9UBQ5 = biological target: EIF3K, Q9UBQ5
# Experimental: as §1
# FBXW11, Q9UKB1 = biological target: FBXW11, Q9UKB1
# Experimental: as §1
# GCC2, Q8IWJ2 = biological target: GCC2, Q8IWJ2
# Experimental: as §1
# HMGB3, O15347 = biological target: HMGB3, O15347
# Experimental: as §1
# HSP90B1, P14625 = biological target: HSP90B1, P14625
# Experimental: as §1
# LUC7L2, Q9Y383 = biological target: LUC7L2, Q9Y383
# Experimental: as §1
# MAGEB2, O15479 = biological target: MAGEB2, O15479
# Experimental: as §1
# MRPL14, Q6P1L8 = biological target: MRPL14, Q6P1L8
# Experimental: as §1
# MRPL54, Q6P161 = biological target: MRPL54, Q6P161
# Experimental: as §1
# MRPS34, P82930 = biological target: MRPS34, P82930
# Experimental: as §1
# MRPS36, P82909 = biological target: MRPS36, P82909
# Experimental: as §1
# ODF2, Q5BJF6 = biological target: ODF2, Q5BJF6
# Experimental: as §1
# ORMDL3, Q8N138 = biological target: ORMDL3, Q8N138
# Experimental: as §1
# PDK3, Q15120 = biological target: PDK3, Q15120
# Experimental: as §1
# PFN2, P35080 = biological target: PFN2, P35080
# Experimental: as §1
# PRKCSH, P14314 = biological target: PRKCSH, P14314
# Experimental: as §1
# RIF1, Q5UIP0 = biological target: RIF1, Q5UIP0
# Experimental: as §1
# RNASEH1, O60930 = biological target: RNASEH1, O60930
# Experimental: as §1
# SNRPD3, P62318 = biological target: SNRPD3, P62318
# Experimental: as §1
# SUPT4H1, P63272 = biological target: SUPT4H1, P63272
# Experimental: as §1
# TMEM177, Q53S58 = biological target: TMEM177, Q53S58
# Experimental: as §1
# TUBG1, P23258 = biological target: TUBG1, P23258
# Experimental: as §1
# TXLNG, Q9NUQ3 = biological target: TXLNG, Q9NUQ3
# Experimental: as §1
# UBA1, P22314 = biological target: UBA1, P22314
# Experimental: as §1
# XPO1, O14980 = biological target: XPO1, O14980
# Experimental: as §1
# XPO4, Q9C0E2 = biological target: XPO4, Q9C0E2
# Experimental: as §1
# ZC3H11A, O75152 = biological target: ZC3H11A, O75152
# Experimental: as §1
# ACOT9, Q9Y305 = biological target: ACOT9, Q9Y305
# Experimental: as §1
# CCDC124, Q96CT7 = biological target: CCDC124, Q96CT7
# Experimental: as §1
# CLPTM1, O96005 = biological target: CLPTM1, O96005
# Experimental: as §1
# EIF4G2, P78344 = biological target: EIF4G2, P78344
# Experimental: as §1
# IDH1, O75874 = biological target: IDH1, O75874
# Experimental: as §1
# MTOR, P42345 = biological target: MTOR, P42345
# Experimental: as §1
# MYEF2, Q9P2K5 = biological target: MYEF2, Q9P2K5
# Experimental: as §1
# NAA35, Q5VZE5 = biological target: NAA35, Q5VZE5
# Experimental: as §1
# POLR1C, O15160 = biological target: POLR1C, O15160
# Experimental: as §1
# RBM10 = biological target: RBM10
# Experimental: as §1
# RBM22, Q9NW64 = biological target: RBM22, Q9NW64
# Experimental: as §1
# RSL1D1, O76021 = biological target: RSL1D1, O76021
# Experimental: as §1
# SEMG2, Q02383 = biological target: SEMG2, Q02383
# Experimental: as §1
# SETD7, Q8WTS6 = biological target: SETD7, Q8WTS6
# Experimental: as §1
# SPTLC1, O15269 = biological target: SPTLC1, O15269
# Experimental: as §1
# TRIM28, Q13263 = biological target: TRIM28, Q13263
# Experimental: as §1
# ZNF326, Q5BKZ1 = biological target: ZNF326, Q5BKZ1
# Experimental: as §1
binder,measurement,setting,value
B1,PRISMA enrichment of interactor (log2),"ACP1, P24666",6.05
same,PRISMA enrichment of interactor (log2),"CNN3, Q15417",6.46
same,PRISMA enrichment of interactor (log2),"COA7, Q96BR5",4.38
same,PRISMA enrichment of interactor (log2),"DBR1, Q9UK59",4.03
same,PRISMA enrichment of interactor (log2),"EIF3K, Q9UBQ5",4.34
same,PRISMA enrichment of interactor (log2),"FBXW11, Q9UKB1",5.05
same,PRISMA enrichment of interactor (log2),"GCC2, Q8IWJ2",4.35
same,PRISMA enrichment of interactor (log2),"HMGB3, O15347",6.73
same,PRISMA enrichment of interactor (log2),"HSP90B1, P14625",6.04
same,PRISMA enrichment of interactor (log2),"LUC7L2, Q9Y383",4.03
same,PRISMA enrichment of interactor (log2),"MAGEB2, O15479",6.06
same,PRISMA enrichment of interactor (log2),"MRPL14, Q6P1L8",5.94
same,PRISMA enrichment of interactor (log2),"MRPL54, Q6P161",4.4
same,PRISMA enrichment of interactor (log2),"MRPS34, P82930",7.46
same,PRISMA enrichment of interactor (log2),"MRPS36, P82909",3.88
same,PRISMA enrichment of interactor (log2),"ODF2, Q5BJF6",5.33
same,PRISMA enrichment of interactor (log2),"ORMDL3, Q8N138",4.59
same,PRISMA enrichment of interactor (log2),"PDK3, Q15120",5.16
same,PRISMA enrichment of interactor (log2),"PFN2, P35080",4.53
same,PRISMA enrichment of interactor (log2),"PRKCSH, P14314",7.15
B2,PRISMA enrichment of interactor (log2),"RIF1, Q5UIP0",5.08
same,PRISMA enrichment of interactor (log2),"RNASEH1, O60930",3.78
same,PRISMA enrichment of interactor (log2),"SNRPD3, P62318",5.37
same,PRISMA enrichment of interactor (log2),"SUPT4H1, P63272",5.41
same,PRISMA enrichment of interactor (log2),"TMEM177, Q53S58",9.46
same,PRISMA enrichment of interactor (log2),"TUBG1, P23258",6.08
same,PRISMA enrichment of interactor (log2),"TXLNG, Q9NUQ3",5.4
same,PRISMA enrichment of interactor (log2),"UBA1, P22314",5.07
same,PRISMA enrichment of interactor (log2),"XPO1, O14980",4.85
same,PRISMA enrichment of interactor (log2),"XPO4, Q9C0E2",3.98
same,PRISMA enrichment of interactor (log2),"ZC3H11A, O75152",4.75
B3,PRISMA enrichment of interactor (log2),"ACOT9, Q9Y305",5.9
same,PRISMA enrichment of interactor (log2),"CCDC124, Q96CT7",4.6
same,PRISMA enrichment of interactor (log2),"CLPTM1, O96005",4.3
same,PRISMA enrichment of interactor (log2),"EIF4G2, P78344",8.14
same,PRISMA enrichment of interactor (log2),"IDH1, O75874",3.92
same,PRISMA enrichment of interactor (log2),"MTOR, P42345",7.21
same,PRISMA enrichment of interactor (log2),"MYEF2, Q9P2K5",3.65
same,PRISMA enrichment of interactor (log2),"NAA35, Q5VZE5",7.23
same,PRISMA enrichment of interactor (log2),"POLR1C, O15160",5.63
same,PRISMA enrichment of interactor (log2),RBM10,4.83
same,PRISMA enrichment of interactor (log2),"RBM22, Q9NW64",5.85
same,PRISMA enrichment of interactor (log2),"RSL1D1, O76021",4.86
same,PRISMA enrichment of interactor (log2),"SEMG2, Q02383",5.06
same,PRISMA enrichment of interactor (log2),"SETD7, Q8WTS6",5.05
same,PRISMA enrichment of interactor (log2),"SPTLC1, O15269",4.08
same,PRISMA enrichment of interactor (log2),"TRIM28, Q13263",7.16
same,PRISMA enrichment of interactor (log2),"ZNF326, Q5BKZ1",10.2

# In another format: entries from further up
binder	measurement	setting	value
B1	PRISMA enrichment of interactor (log2)	COA7, Q96BR5	4.38
same	PRISMA enrichment of interactor (log2)	EIF3K, Q9UBQ5	4.34
same	PRISMA enrichment of interactor (log2)	GCC2, Q8IWJ2	4.35
same	PRISMA enrichment of interactor (log2)	MRPS36, P82909	3.88
same	PRISMA enrichment of interactor (log2)	PDK3, Q15120	5.16
B3	PRISMA enrichment of interactor (log2)	EIF4G2, P78344	8.14
same	PRISMA enrichment of interactor (log2)	IDH1, O75874	3.92
same	PRISMA enrichment of interactor (log2)	MTOR, P42345	7.21
same	PRISMA enrichment of interactor (log2)	RSL1D1, O76021	4.86
same	PRISMA enrichment of interactor (log2)	SPTLC1, O15269	4.08
